Test results taken from PMC4132731, “Crystal structure of RNase H3–substrate complex reveals parallel evolution of RNA/DNA hybrid recognition”.
For at least one entry, the source does not settle the construct or the ends of the probe. Protein sequences can lack the tags named with them.

Molecular target: T1, Ta-RNase H3 N-domain (Thermovibrio ammonificans) (UniProt E8T217)
T1 sequence (looked up): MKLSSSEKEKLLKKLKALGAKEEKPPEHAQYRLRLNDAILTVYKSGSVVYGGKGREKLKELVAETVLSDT
Test: EMSA
Conditions: weak binding; EMSA: 10% native TAE polyacrylamide gel; recombinant protein; residues 1-70; DNA:RNA hybrid

Sequence: ACAGAGUGCGACACCUGAUUCCAU / ATGGAATCAGGTGTCGCACTCTGT [24-bp RNA/DNA hybrid]
- binding result: binds
